Measured values taken from the supplement of paper PMC7661543.
± gives the standard deviation of the averaged measurements. Differences between knockout arms are mostly noise.

Tested on: HCC-38
Experiment: relative cell number vs DMSO control (72 h) (% of DMSO); higher = less growth inhibition (more cells)
Description: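 QMAP-Seq: a pool of 5 breast cancer cell lines (ZR-75-1, SKBR3, HCC-38, MDA-MB-231, BT-20), each carrying 12 doxycycline-inducible Cas9 sgRNA perturbations (11 knockouts plus non-targeting sgNT), was treated with compounds for 72 h at four 10-fold doses (10 nM-10 uM or 1 nM-1 uM range). Barcodes were amplified and sequenced, and cell number was interpolated from 293T spike-in standard curves. The result is expressed as % of the median of DMSO wells. Two biological replicates.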

CCC(C)(C)C(=O)O[C@H]1C[C@@H](C)C=C2C=C[C@H](C)[C@H](CC[C@@H]3C[C@@H](O)CC(=O)O3)[C@H]21 [Simvastatin]
Settings | relative cell number
sgRNA knockout: sgATF3, 10 nM | 93.1 ± 11
sgRNA knockout: sgATF3, 100 nM | 101 ± 14
sgRNA knockout: sgATF3, 1000 nM | 98.9 ± 10
sgRNA knockout: sgATF3, 10000 nM | 95.5 ± 3.3
sgRNA knockout: sgATF4, 10 nM | 89.9 ± 5
sgRNA knockout: sgATF4, 100 nM | 95 ± 22
sgRNA knockout: sgATF4, 1000 nM | 106 ± 2.9
sgRNA knockout: sgATF4, 10000 nM | 85.6 ± 8.8
sgRNA knockout: sgATF6, 10 nM | 98.2 ± 11
sgRNA knockout: sgATF6, 100 nM | 90.4 ± 13
sgRNA knockout: sgATF6, 1000 nM | 99 ± 3.3
sgRNA knockout: sgATF6, 10000 nM | 86 ± 2.2
sgRNA knockout: sgATG7, 10 nM | 90 ± 4.3
sgRNA knockout: sgATG7, 100 nM | 99.8 ± 22
sgRNA knockout: sgATG7, 1000 nM | 94.8 ± 4.5
sgRNA knockout: sgATG7, 10000 nM | 81.3 ± 7.5
sgRNA knockout: sgERN1, 10 nM | 91.9 ± 6.8
sgRNA knockout: sgERN1, 100 nM | 102 ± 12
sgRNA knockout: sgERN1, 1000 nM | 96.22 ± 0.93
sgRNA knockout: sgERN1, 10000 nM | 95.5 ± 1.6
sgRNA knockout: sgHSF1, 10 nM | 93.8 ± 3.3
sgRNA knockout: sgHSF1, 100 nM | 79.3 ± 6.5
sgRNA knockout: sgHSF1, 1000 nM | 95.6 ± 14
sgRNA knockout: sgHSF1, 10000 nM | 117 ± 3.2
sgRNA knockout: sgHSF2, 10 nM | 103 ± 2.5
sgRNA knockout: sgHSF2, 100 nM | 87.5 ± 2.2
sgRNA knockout: sgHSF2, 1000 nM | 97 ± 8.6
sgRNA knockout: sgHSF2, 10000 nM | 88.6 ± 5.6
sgRNA knockout: sgKEAP1, 10 nM | 99.8 ± 9.3
sgRNA knockout: sgKEAP1, 100 nM | 95.6 ± 17
sgRNA knockout: sgKEAP1, 1000 nM | 81.4 ± 13
sgRNA knockout: sgKEAP1, 10000 nM | 98.2 ± 6.8
sgRNA knockout: sgNFE2L2, 10 nM | 80 ± 2.1
sgRNA knockout: sgNFE2L2, 100 nM | 83.9 ± 9.3
sgRNA knockout: sgNFE2L2, 1000 nM | 94.4 ± 15
sgRNA knockout: sgNFE2L2, 10000 nM | 78.3 ± 12
sgRNA knockout: sgSLC35F2, 10 nM | 97.1 ± 1.6
sgRNA knockout: sgSLC35F2, 100 nM | 94 ± 23
sgRNA knockout: sgSLC35F2, 1000 nM | 96.8 ± 4.8
sgRNA knockout: sgSLC35F2, 10000 nM | 95.1 ± 3.8
sgRNA knockout: sgXBP1, 10 nM | 85.28 ± 0.33
sgRNA knockout: sgXBP1, 100 nM | 94.6 ± 14
sgRNA knockout: sgXBP1, 1000 nM | 106.5 ± 0.71
sgRNA knockout: sgXBP1, 10000 nM | 83.3 ± 6.9

COC(=O)/C=C/C(=O)OC [DimethylFumarate]
Settings | relative cell number
sgRNA knockout: sgATF3, 10 nM | 95.4 ± 8.2
sgRNA knockout: sgATF3, 100 nM | 86.8 ± 10
sgRNA knockout: sgATF3, 1000 nM | 96.8 ± 2.7
sgRNA knockout: sgATF3, 10000 nM | 95.5 ± 21
sgRNA knockout: sgATF4, 10 nM | 98.6 ± 4.7
sgRNA knockout: sgATF4, 100 nM | 80 ± 2.9
sgRNA knockout: sgATF4, 1000 nM | 90.9 ± 12
sgRNA knockout: sgATF4, 10000 nM | 88.6 ± 24
sgRNA knockout: sgATF6, 10 nM | 102 ± 16
sgRNA knockout: sgATF6, 100 nM | 91 ± 4.9
sgRNA knockout: sgATF6, 1000 nM | 114 ± 19
sgRNA knockout: sgATF6, 10000 nM | 99.9 ± 17
sgRNA knockout: sgATG7, 10 nM | 97.2 ± 1.2
sgRNA knockout: sgATG7, 100 nM | 81.7 ± 9.6
sgRNA knockout: sgATG7, 1000 nM | 93.7 ± 12
sgRNA knockout: sgATG7, 10000 nM | 86.6 ± 9.6
sgRNA knockout: sgERN1, 10 nM | 97.9 ± 2
sgRNA knockout: sgERN1, 100 nM | 84.7 ± 6.4
sgRNA knockout: sgERN1, 1000 nM | 92.3 ± 13
sgRNA knockout: sgERN1, 10000 nM | 95 ± 7.1
sgRNA knockout: sgHSF1, 10 nM | 92.9 ± 13
sgRNA knockout: sgHSF1, 100 nM | 87.8 ± 7.2
sgRNA knockout: sgHSF1, 1000 nM | 87.9 ± 2.8
sgRNA knockout: sgHSF1, 10000 nM | 94.9 ± 1.5
sgRNA knockout: sgHSF2, 10 nM | 93.9 ± 14
sgRNA knockout: sgHSF2, 100 nM | 94.5 ± 4.6
sgRNA knockout: sgHSF2, 1000 nM | 93.77 ± 0.84
sgRNA knockout: sgHSF2, 10000 nM | 92.2 ± 14
sgRNA knockout: sgKEAP1, 10 nM | 109 ± 31
sgRNA knockout: sgKEAP1, 100 nM | 112 ± 5.2
sgRNA knockout: sgKEAP1, 1000 nM | 101 ± 9.5
sgRNA knockout: sgKEAP1, 10000 nM | 101 ± 18
sgRNA knockout: sgNFE2L2, 10 nM | 90.4 ± 7.1
sgRNA knockout: sgNFE2L2, 100 nM | 78.8 ± 1.4
sgRNA knockout: sgNFE2L2, 1000 nM | 89.1 ± 6.7
sgRNA knockout: sgNFE2L2, 10000 nM | 85.6 ± 19
sgRNA knockout: sgSLC35F2, 10 nM | 88.4 ± 13
sgRNA knockout: sgSLC35F2, 100 nM | 88.7 ± 9.4
sgRNA knockout: sgSLC35F2, 1000 nM | 95.7 ± 7.6
sgRNA knockout: sgSLC35F2, 10000 nM | 88.7 ± 20
sgRNA knockout: sgXBP1, 10 nM | 94.86 ± 0.42
sgRNA knockout: sgXBP1, 100 nM | 86.7 ± 11
sgRNA knockout: sgXBP1, 1000 nM | 89.1 ± 9
sgRNA knockout: sgXBP1, 10000 nM | 94.4 ± 22

C=C(C)[C@@H]1CC[C@]2(C(=O)O)CC[C@]3(C)[C@H](CC[C@@H]4[C@@]5(C)CC[C@H](O)C(C)(C)[C@@H]5CC[C@]43C)[C@@H]12 [BetulinicAcid]
Settings | relative cell number
sgRNA knockout: sgATF3, 10 nM | 104 ± 19
sgRNA knockout: sgATF3, 100 nM | 85.6 ± 3.3
sgRNA knockout: sgATF3, 1000 nM | 92.6 ± 30
sgRNA knockout: sgATF3, 10000 nM | 95.4 ± 0.82
sgRNA knockout: sgATF4, 10 nM | 100 ± 16
sgRNA knockout: sgATF4, 100 nM | 83.1 ± 5.5
sgRNA knockout: sgATF4, 1000 nM | 99.6 ± 28
sgRNA knockout: sgATF4, 10000 nM | 86.2 ± 1.7
sgRNA knockout: sgATF6, 10 nM | 112 ± 12
sgRNA knockout: sgATF6, 100 nM | 91.22 ± 0.71
sgRNA knockout: sgATF6, 1000 nM | 91.6 ± 30
sgRNA knockout: sgATF6, 10000 nM | 110 ± 22
sgRNA knockout: sgATG7, 10 nM | 92.4 ± 16
sgRNA knockout: sgATG7, 100 nM | 88.3 ± 11
sgRNA knockout: sgATG7, 1000 nM | 95.6 ± 21
sgRNA knockout: sgATG7, 10000 nM | 93.8 ± 1.1
sgRNA knockout: sgERN1, 10 nM | 107 ± 15
sgRNA knockout: sgERN1, 100 nM | 89.6 ± 1.2
sgRNA knockout: sgERN1, 1000 nM | 98.8 ± 17
sgRNA knockout: sgERN1, 10000 nM | 98.4 ± 9.1
sgRNA knockout: sgHSF1, 10 nM | 91.1 ± 21
sgRNA knockout: sgHSF1, 100 nM | 91.9 ± 11
sgRNA knockout: sgHSF1, 1000 nM | 79 ± 8.9
sgRNA knockout: sgHSF1, 10000 nM | 105 ± 2.9
sgRNA knockout: sgHSF2, 10 nM | 95 ± 14
sgRNA knockout: sgHSF2, 100 nM | 96.3 ± 8.2
sgRNA knockout: sgHSF2, 1000 nM | 83.9 ± 18
sgRNA knockout: sgHSF2, 10000 nM | 92.6 ± 2.5
sgRNA knockout: sgKEAP1, 10 nM | 86.6 ± 29
sgRNA knockout: sgKEAP1, 100 nM | 95.3 ± 19
sgRNA knockout: sgKEAP1, 1000 nM | 86.9 ± 33
sgRNA knockout: sgKEAP1, 10000 nM | 79.6 ± 4.3
sgRNA knockout: sgNFE2L2, 10 nM | 106 ± 10
sgRNA knockout: sgNFE2L2, 100 nM | 78.4 ± 6.4
sgRNA knockout: sgNFE2L2, 1000 nM | 106 ± 37
sgRNA knockout: sgNFE2L2, 10000 nM | 87.3 ± 2
sgRNA knockout: sgSLC35F2, 10 nM | 105 ± 7
sgRNA knockout: sgSLC35F2, 100 nM | 83.3 ± 8.6
sgRNA knockout: sgSLC35F2, 1000 nM | 99.7 ± 33
sgRNA knockout: sgSLC35F2, 10000 nM | 97.1 ± 17
sgRNA knockout: sgXBP1, 10 nM | 103 ± 7.6
sgRNA knockout: sgXBP1, 100 nM | 82.4 ± 4.9
sgRNA knockout: sgXBP1, 1000 nM | 98.7 ± 22
sgRNA knockout: sgXBP1, 10000 nM | 91.8 ± 1.6
